# Reference: the supplement of paper PMC5249140, “Delineating Substrate Diversity of Disparate Short-Chain Dehydrogenase Reductase from Debaryomyces hansenii” (PLoS ONE, 2017)
# Most values come without repeats; read them as rough.
# Tested on: DHK short-chain dehydrogenase reductase (Debaryomyces hansenii, Q6BTD7)
# Test: apparent turnover number kcat for ketone reduction (NADPH consumption, 100 uM substrate) (s-1); higher = faster reduction of the ketone by the enzyme
# Conditions: substrate concentration 100 µM; NADPH 100 µM; pH 7.4; 25 °C
# Experimental: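 Purified N-His6 DHK (unannotated SDR, Debaryomyces hansenii) was screened against a prochiral ketone library: 100 uM substrate, 100 uM NADPH, 1% BSA, 4% DMSO in 100 mM sodium phosphate / 100 mM NaCl pH 7.4 at 25 C, ~27 nM enzyme. Rate was followed by NADPH depletion at 340 nm and reported as apparent kcat (s-1) at a single substrate concentration; no replicates stated.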
row,Structure (SMILES),apparent turnover number kcat
1,Cc1[nH]c2ccccc2c1C(=O)COC(=O)C1=NNC(=O)CC1,3.76
2,O=C(Cn1nnc([N+](=O)[O-])n1)c1ccccc1,4.88
3,O=C(CCNc1ccc2ccccc2c1)c1ccc([N+](=O)[O-])cc1,2.74
4,CC(=O)c1cccc(N(CC(=O)Nc2ccc(I)cc2C)S(C)(=O)=O)c1,3.99
5,CC(=O)c1c(C)oc2ccc(N(C(C)=O)S(=O)(=O)c3ccc(C)c([N+](=O)[O-])c3)cc12,4.76
6,CC(=O)c1ccc(NC(=O)COC(=O)c2n[nH]c3ccccc23)cc1,3.56
7,C=CCn1c(SCC(=O)c2ccc3c(c2)OCCO3)nc2sc(CC)cc2c1=O,0.00204
8,CC(=O)c1cccc(NS(=O)(=O)c2ccc(C)c([N+](=O)[O-])c2)c1,7.72
9,O=C(CNc1ccc2c(c1)oc1ccccc12)c1ccc([N+](=O)[O-])cc1,2.99
10,O=C(COC(=O)c1cccnc1)c1ccc(Cl)cc1,6.6
11,O=C(OCC(=O)c1cccc2ccccc12)c1ccccc1[N+](=O)[O-],4.14
12,O=C(CN1C(=O)NC2(CCCC2)C1=O)OCC(=O)c1ccc(Cl)s1,4.44
13,Cn1c(N)c(C(=O)CN2c3cccc4cccc(c34)S2(=O)=O)c(=O)n(C)c1=O,4.45
14,O=C(Cn1nc(-c2cccs2)oc1=O)c1ccc(N2CCCC2=O)cc1,5.14
15,O=C(CSc1nnc(-c2ccc(O)cc2)o1)c1ccc(Cl)cc1,4.12
16,CCCn1c(N)c(C(=O)CSc2nnc(N)s2)c(=O)[nH]c1=O,8.15
17,Cc1sc2nc(SCC(=O)c3ccc(O)c(O)c3)[nH]c(=O)c2c1C,4.84
18,COc1ccc(S(=O)(=O)Nc2ccc(C(C)=O)cc2)cc1[N+](=O)[O-],5.29
19,CC(=O)c1cccc(S(=O)(=O)Nc2cc(C(=O)[O-])ccc2C)c1,5.41
20,O=C(c1cnn(C(=O)c2ccncc2)c1)c1ccccc1O,5.25
21,COc1ccc(N2CCN(CC(=O)c3ccc(O)cc3O)CC2)cc1,3.86
22,CC(=O)c1cccc(NS(=O)(=O)c2ccccc2C#N)c1,4.65
23,O=C(CCN1C(=O)c2cccc([N+](=O)[O-])c2C1=O)OCC(=O)c1ccc(F)cc1,3.97
24,Cc1cc(=O)oc(C)c1C(=O)OCC(=O)c1ccc([N+](=O)[O-])cc1,4.27
25,O=C1C=C(NNC(=O)c2cccnc2)CCC1,5.28
26,CC1=CC(=NOC(=O)c2ccc([N+](=O)[O-])cc2)C=C(C)C1=O,3.23
27,O=C(COc1ccc2c(-c3ccccc3)cc(=O)oc2c1)c1ccc2c(c1)OCO2,2.96

row,Structure (SMILES),apparent turnover number kcat
1,O=C(c1ccccc1)c1ccc(N2CCCCC2)c([N+](=O)[O-])c1,4.42
2,O=C(Nc1ccc2ccccc2c1)C(=O)C1C(=O)Nc2ccccc21 (centres undefined),3.81
3,Cn1cccc1C(=O)OCC(=O)c1cc2ccccc2o1,4.63
4,CC1=CC(=NOC(=O)c2cccc([N+](=O)[O-])c2)C=C(C)C1=O,6.72
5,CC(=O)c1c(C)[nH]c(C(=O)COC(=O)c2nccnc2N)c1C,5.25
6,O=C1COc2ccc(C(=O)COC(=O)c3ccco3)cc2N1,4.89
7,CC1(C)CC(=O)C(C(=O)CC2CC(=O)NC(=O)C2)C(=O)C1,5.38
8,O=C([O-])CN1C(=O)C(O)=C(C(=O)c2ccc([N+](=O)[O-])cc2)C1c1ccc(Br)cc1 (centres undefined),5.48
9,O=C(CCNc1ccc(Cc2ccncc2)cc1)c1cccc([N+](=O)[O-])c1,3
10,Cn1c(N)c(C(=O)CSc2nnc(-c3ccc4c(c3)OCO4)o2)c(=O)n(C)c1=O,3.13
11,CC(C)CC(C(=O)C(C#N)=C1Nc2ccccc2N1)N1C(=O)c2ccccc2C1=O (centres undefined),4
12,O=C(Cn1cnc2ccccc2c1=O)OCC(=O)c1ccccc1,5.93
13,Cc1ccc(C(=O)c2ccc(N3CCOCC3)c([N+](=O)[O-])c2)cc1,3.71
14,CC(=O)c1cccc(-n2nnn(C3CC(=O)C4OCC3O4)c2=S)c1 (centres undefined),2.95
15,O=C(CSc1ncnc2[nH]cnc12)c1ccc2ccccc2c1,3.29
16,CC(=O)c1cccc(N(CC(=O)Nc2ccccc2Br)S(C)(=O)=O)c1,4.18
17,O=C(CN1C(=O)c2ccccc2C1=O)OCC(=O)c1ccc(Br)cc1,2.6
18,N#Cc1cc(C(=O)c2cc(Cl)ccc2O)cn(-c2ccccc2)c1=O,4.7
19,Cc1ccc(OCC(=O)c2ccc3c(c2)CCC3)c([N+](=O)[O-])n1,5.02
20,Cc1cc(O)cc(O)c1C(=O)Cc1cnn(-c2ccccc2)c1,3.18
21,CC(=O)c1cccc(S(=O)(=O)Nc2ccc(C(=O)[O-])cc2)c1,0.461
22,COc1cccc(NC(=O)CC(=O)c2ccc([N+](=O)[O-])cc2)c1,4.88
23,Cc1cccc(C(=O)NCC(=O)OCC(=O)c2ccc([N+](=O)[O-])cc2)c1,3.38
24,O=C(CN1C(=O)c2cccc([N+](=O)[O-])c2C1=O)OCC(=O)c1ccc(Cl)c(Cl)c1,4.46
25,Nc1c(C(=O)CCl)c(=O)[nH]c(=O)n1Cc1ccccc1,6.1
26,COC(=O)c1cc2cc(CC(=O)c3ccc(O)cc3O)ccc2o1,0.311
27,Cc1ccc(O)c(C(=O)c2cnc3cc4c(cc3c2)OCCO4)c1,4.66

# Some of the entries so far, with bars between the fields:
row | Structure (SMILES) | apparent turnover number kcat
6 | O=C1COc2ccc(C(=O)COC(=O)c3ccco3)cc2N1 | 4.89
20 | Cc1cc(O)cc(O)c1C(=O)Cc1cnn(-c2ccccc2)c1 | 3.18
